The values below come from PMC7006197.

Experiment [1] has as its target T1, MBP-fused MYB24 (Arabidopsis thaliana) (UniProt Q9SPG9).
T1 sequence: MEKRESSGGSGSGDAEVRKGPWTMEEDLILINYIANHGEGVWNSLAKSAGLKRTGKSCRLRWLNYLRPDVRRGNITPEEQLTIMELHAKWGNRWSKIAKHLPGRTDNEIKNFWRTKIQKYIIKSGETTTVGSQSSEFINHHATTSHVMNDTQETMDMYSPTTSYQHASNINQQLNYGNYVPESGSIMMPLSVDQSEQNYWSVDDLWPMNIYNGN
As to the kind of experiment: pull-down; purified MBP, MBP-MYB21 or MBP-MYB24 held on amylose resin beads, incubated 2 h at 4 °C with concentrated total protein of TAP-RGA, TAP-RGL1 or TAP-RGL2 transgenic seedlings in RB buffer (25 mM imidazole, 100 mM NaCl, 50 mM Tris-Cl pH 7.8, 0.1% Tween20, 10% glycerol, 20 mM 2-mercaptoethanol); immunoblot with anti-c-myc antibody; only the target purified. In general terms: A western blot detects proteins with antibodies after separation by electrophoresis.

Experiment [2] concerns the target T2, MBP-fused MYB21 (Arabidopsis thaliana) (UniProt Q9LK95).
T2 sequence: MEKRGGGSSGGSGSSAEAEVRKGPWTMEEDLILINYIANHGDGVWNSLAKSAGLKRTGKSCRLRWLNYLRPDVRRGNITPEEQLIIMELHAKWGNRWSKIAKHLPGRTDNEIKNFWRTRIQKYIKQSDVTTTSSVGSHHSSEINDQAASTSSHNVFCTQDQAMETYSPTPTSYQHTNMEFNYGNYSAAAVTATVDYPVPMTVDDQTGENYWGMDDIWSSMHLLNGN
The description is as above.

Results are given in words; binding and its absence hold for the method and conditions named. Binding seen in cells or lysates may run through a third protein. Some entries that bind do so weakly or less than the wild type. Where a sequence is shown, tags or fusion partners need not be part of it.

B1: tandem affinity purification (TAP) tag-fused RGL1 (protein, UniProt Q9C8Y3 1-511)
chain: MKREHNHRESSAGEGGSSSMTTVIKEEAAGVDELLVVLGYKVRSSDMADVAHKLEQLEMVLGDGISNLSDETVHYNPSDLSGWVESMLSDLDPTRIQEKPDSEYDLRAIPGSAVYPRDEHVTRRSKRTRIESELSSTRSVVVLDSQETGVRLVHALLACAEAVQQNNLKLADALVKHVGLLASSQAGAMRKVATYFAEGLARRIYRIYPRDDVALSSFSDTLQIHFYESCPYLKFAHFTANQAILEVFATAEKVHVIDLGLNHGLQWPALIQALALRPNGPPDFRLTGIGYSLTDIQEVGWKLGQLASTIGVNFEFKSIALNNLSDLKPEMLDIRPGLESVAVNSVFELHRLLAHPGSIDKFLSTIKSIRPDIMTVVEQEANHNGTVFLDRFTESLHYYSSLFDSLEGPPSQDRVMSELFLGRQILNLVACEGEDRVERHETLNQWRNRFGLGGFKPVSIGSNAYKQASMLLALYAGADGYNVEENEGCLLLGWQTRPLIATSAWRINRVE
On to B1, for which the binding entry in experiment [1] and in experiment [2] was “binds” throughout.
